{
  "source": "paper PMC5939605",
  "about": "“Highly luminescent, biocompatible ytterbium(III) complexes as near-infrared fluorophores for living cell imaging” (Chemical Science, 2018)",
  "data": [
    {"system": "HeLa cells", "test": "ICP spectrometry for cellular uptake quantification", "assay_type": "cell-based", "settings": "HeLa cells incubated with 10 μM complex for 12 h", "units": {"Concentration of Yb3+ in 1x106 cells": "μg/mL"}, "values": [
      {"smiles": "C[N+]1(C)CC2(F)C3=NC(=C(c4c(F)c(F)c(F)c(F)c4F)c4c(F)c(F)c5[n]4[Yb+][n]4c(c(F)c(F)c4=C3c3c(F)c(F)c(F)c(F)c3F)=C(c3c(F)c(F)c(F)c(F)c3F)C3=NC(=C5c4c(F)c(F)c(F)c(F)c4F)C(F)=C3F)C2(F)C1.[2H]C([2H])([2H])O[P](=O)(OC([2H])([2H])[2H])[Co-]([CH]1C=CC=C1)([P](=O)(OC([2H])([2H])[2H])OC([2H])([2H])[2H])[P](=O)(OC([2H])([2H])[2H])OC([2H])([2H])[2H].[I-]", "note": "(stereo not drawn) [Yb-4]", "Concentration of Yb3+ in 1x106 cells": "0.1286±0.0441"},
      {"smiles": "C1=CC2=C(c3ccc(C[P+](c4ccccc4)(c4ccccc4)c4ccccc4)cc3)c3ccc4[n]3[Yb+][n]3c(ccc3=C(c3ccc(C[P+](c5ccccc5)(c5ccccc5)c5ccccc5)cc3)C3=NC(=C4c4ccc(C[P+](c5ccccc5)(c5ccccc5)c5ccccc5)cc4)C=C3)=C(c3ccc(C[P+](c4ccccc4)(c4ccccc4)c4ccccc4)cc3)C1=N2.[2H]C([2H])([2H])O[P](=O)(OC([2H])([2H])[2H])[Co-]([CH]1C=CC=C1)([P](=O)(OC([2H])([2H])[2H])OC([2H])([2H])[2H])[P](=O)(OC([2H])([2H])[2H])OC([2H])([2H])[2H].[Cl-].[Cl-].[Cl-].[Cl-]", "note": "[Yb-3c]", "Concentration of Yb3+ in 1x106 cells": "0.2796±0.0431"},
      {"smiles": "C[N+]1(C)CC2C3=NC(=C(c4c(F)c(F)c(F)c(F)c4F)c4ccc5[n]4[Yb+][n]4c(ccc4=C3c3c(F)c(F)c(F)c(F)c3F)=C(c3c(F)c(F)c(F)c(F)c3F)C3=NC(=C5c4c(F)c(F)c(F)c(F)c4F)C=C3)C2C1.[2H]C([2H])([2H])O[P](=O)(OC([2H])([2H])[2H])[Co-]([CH]1C=CC=C1)([P](=O)(OC([2H])([2H])[2H])OC([2H])([2H])[2H])[P](=O)(OC([2H])([2H])[2H])OC([2H])([2H])[2H].[I-]", "note": "(stereo not drawn) [Yb-4c]", "Concentration of Yb3+ in 1x106 cells": "0.2578±0.0272"},
      {"smiles": "FC1=C(F)C2=C(c3ccc(C[P+](c4ccccc4)(c4ccccc4)c4ccccc4)cc3)c3c(F)c(F)c4[n]3[Yb+][n]3c(c(F)c(F)c3=C(c3ccc(C[P+](c5ccccc5)(c5ccccc5)c5ccccc5)cc3)C3=NC(=C4c4ccc(C[P+](c5ccccc5)(c5ccccc5)c5ccccc5)cc4)C(F)=C3F)=C(c3ccc(C[P+](c4ccccc4)(c4ccccc4)c4ccccc4)cc3)C1=N2.[2H]C([2H])([2H])O[P](=O)(OC([2H])([2H])[2H])[Co-]([CH]1C=CC=C1)([P](=O)(OC([2H])([2H])[2H])OC([2H])([2H])[2H])[P](=O)(OC([2H])([2H])[2H])OC([2H])([2H])[2H].[Cl-].[Cl-].[Cl-].[Cl-]", "note": "[Yb-3]", "Concentration of Yb3+ in 1x106 cells": "0.1542±0.0388"},
      {"smiles": "O=C(O)c1ccc(C2=C3C=CC(=N3)C(c3c(F)c(F)c(F)c(F)c3F)=c3ccc4[n]3[Yb+][n]3c2ccc3C(c2c(F)c(F)c(F)c(F)c2F)=C2C=CC(=N2)C=4c2c(F)c(F)c(F)c(F)c2F)cc1.[2H]C([2H])([2H])O[P](=O)(OC([2H])([2H])[2H])[Co-]([CH]1C=CC=C1)([P](=O)(OC([2H])([2H])[2H])OC([2H])([2H])[2H])[P](=O)(OC([2H])([2H])[2H])OC([2H])([2H])[2H]", "note": "[Yb-2c]", "Concentration of Yb3+ in 1x106 cells": "0.2190±0.0549"},
      {"smiles": "OC[C@H]1O[C@@H](Oc2ccc(C3=C4N=C(C(F)=C4F)C(c4ccc(O[C@@H]5O[C@H](CO)[C@@H](O)[C@H](O)[C@H]5O)cc4)=c4c(F)c(F)c5[n]4[Yb+][n]4c3c(F)c(F)c4C(c3ccc(O[C@@H]4O[C@H](CO)[C@@H](O)[C@H](O)[C@H]4O)cc3)=C3N=C(C(F)=C3F)C=5c3ccc(O[C@@H]4O[C@H](CO)[C@@H](O)[C@H](O)[C@H]4O)cc3)cc2)[C@H](O)[C@@H](O)[C@@H]1O.[2H]C([2H])([2H])O[P](=O)(OC([2H])([2H])[2H])[Co-]([CH]1C=CC=C1)([P](=O)(OC([2H])([2H])[2H])OC([2H])([2H])[2H])[P](=O)(OC([2H])([2H])[2H])OC([2H])([2H])[2H]", "note": "[Yb-1]", "Concentration of Yb3+ in 1x106 cells": "0.0259±0.0217"}
    ]}
  ]
}
